Substitutions are numbered along the chain they refer to. Names and notes keep the numbering of the source. Results are given in words; binding and its absence hold for the method and conditions named. Sequences can lack the tags named with a protein. Each block holds one binder with its values, some of them ahead of it.
Assays:
[1] = molecular target: T1, MukB long hinge (LH; amino acid residues 568–863) (E. coli) (UniProt P22523); test: native gel or EMSA; native PAGE; MatP or variants (7 µM) mixed with LH and/or 50 bp DNA at 1:1(:1), 30 min on ice; Coomassie and ethidium bromide staining; both purified
T1 sequence: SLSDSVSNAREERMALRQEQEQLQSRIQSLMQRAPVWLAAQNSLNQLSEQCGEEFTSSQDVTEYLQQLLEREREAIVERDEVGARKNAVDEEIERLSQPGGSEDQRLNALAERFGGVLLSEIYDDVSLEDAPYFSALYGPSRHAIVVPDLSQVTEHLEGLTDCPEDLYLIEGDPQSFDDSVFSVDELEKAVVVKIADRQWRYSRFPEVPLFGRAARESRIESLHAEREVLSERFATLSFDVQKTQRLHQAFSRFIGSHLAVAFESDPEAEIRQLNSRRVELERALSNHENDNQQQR

[2] = molecular target: T1, MukB long hinge (LH; amino acid residues 568–863) (E. coli); test: native MS; proteins buffer exchanged into 200 mM ammonium acetate pH 8.0, alone or mixed in different ratios (two or three components, with or without 50 bp DNA), 10 min on ice; both purified
[3] = molecular target: T2, Cy3B-labeled MatP-Cys-His (E. coli) (UniProt P0A8N0); test: fluorescence correlation spectroscopy (FCS); titration at constant 1 nM MatP-Cy3B; 20 mM Tris-HCl pH 7.5, 50 mM NaCl, 0.3 mg/mL BSA, 2 mM DTT, 0.05% Tween-20; 22 °C; fitted to the Hill equation; both purified
T2 sequence (chain, Cy3B maleimide on the single cysteine engineered into the C-terminal linker): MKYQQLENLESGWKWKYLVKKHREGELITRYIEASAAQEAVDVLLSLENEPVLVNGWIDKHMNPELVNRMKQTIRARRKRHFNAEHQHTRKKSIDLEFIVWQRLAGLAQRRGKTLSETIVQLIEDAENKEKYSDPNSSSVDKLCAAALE

[4] = molecular target: T3, MatPΔ18C (1–132), C-terminal 6xHis-tag (E. coli) (UniProt P0A8N0); test: native MS; proteins buffer exchanged into 200 mM ammonium acetate pH 8.0, alone or mixed in different ratios (two or three components, with or without 50 bp DNA), 10 min on ice; both purified
T3 sequence: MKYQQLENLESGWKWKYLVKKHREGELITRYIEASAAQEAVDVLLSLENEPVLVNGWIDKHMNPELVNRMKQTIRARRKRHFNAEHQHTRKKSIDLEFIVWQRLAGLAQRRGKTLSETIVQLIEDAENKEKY

B1: MatP^4E (K71E, Q72E, R75E, and R77E) (domain or fragment, UniProt P0A8N0 1-132)
chain: T3 sequence with K71E, Q72E, R75E, R77E
- binding [1]: no binding (tested: MatP variant at 7 µM, 1:1 with LH)

B2: MatPΔ18C (1–132), C-terminal 6xHis-tag (domain or fragment, UniProt P0A8N0 1-132)
chain: T3 sequence
- binding [2]: no binding (condition: MatP bound to 50 bp matS DNA)
- binding [1]: no binding (condition: with 50 bp matS DNA)

- binding [3]: no binding
- binding [4]: no binding
B3: full-length ParC, N-terminal 6xHis-tag (enzyme, UniProt P0AFI2 1-752)
chain: MSDMAERLALHEFTENAYLNYSMYVIMDRALPFIGDGLKPVQRRIVYAMSELGLNASAKFKKSARTVGDVLGKYHPHGDSACYEAMVLMAQPFSYRYPLVDGQGNWGAPDDPKSFAAMRYTESRLSKYSELLLSELGQGTADWVPNFDGTLQEPKMLPARLPNILLNGTTGIAVGMATDIPPHNLREVAQAAIALIDQPKTTLDQLLDIVQGPDYPTEAEIITSRAEIRKIYENGRGSVRMRAVWKKEDGAVVISALPHQVSGARVLEQIAAQMRNKKLPMVDDLRDESDHENPTRLVIVPRSNRVDMDQVMNHLFATTDLEKSYRINLNMIGLDGRPAVKNLLEILSEWLVFRRDTVRRRLNYRLEKVLKRLHILEGLLVAFLNIDEVIEIIRNEDEPKPALMSRFGLTETQAEAILELKLRHLAKLEEMKIRGEQSELEKERDQLQGILASERKMNNLLKKELQADAQAYGDDRRSPLQEREEAKAMSEHDMLPSEPVTIVLSQMGWVRSAKGHDIDAPGLNYKAGDSFKAAVKGKSNQPVVFVDSTGRSYAIDPITLPSARGQGEPLTGKLTLPPGATVDHMLMESDDQKLLMASDAGYGFVCTFNDLVARNRAGKALITLPENAHVMPPVVIEDASDMLLAITQAGRMLMFPVSDLPQLSKGKGNKIINIPSAEAARGEDGLAQLYVLPPQSTLTIHVGKRKIKLRPEELQKVTGERGRRGTLMRGLQRIDRVEIDSPRRASSGDSEE
